US8440718B2, “Modulation of inflammation related to columnar epithelia” (The Brigham and Women's Hospital, Inc., priority 1991, dated 2013)
“And” between values parts separate entries of the source, which are not always exact repeats. Equal entries are not always repeated.

System: human PMN migration across T84 epithelial monolayers
Assay: Effect of inhibitors on baseline and LXA4-elicited PMN transepithelial migration, apical-to-basolateral
Assay type: cell-based

CN[C@@H]1C[C@H]2O[C@@](C)([C@@H]1OC)n1c3ccccc3c3c4c(c5c6ccccc6n2c5c31)C(=O)NC4 [staurosporine]
inhibition of baseline PMN transepithelial migration vs vehicle control: 93±5% and 96±9% | inhibition at 1 pM (Homo sapiens, staurosporine 0.001 nM, read-out: inhibition of baseline PMN transepithelial migration compared to vehicle controls): 11 ± 6% | inhibition at 10 pM (Homo sapiens, staurosporine 0.01 nM, read-out: inhibition of baseline PMN transepithelial migration compared to vehicle controls): 35 ± 11% | inhibition at 0.0001 µM (Homo sapiens, staurosporine 0.1 nM, read-out: inhibition of baseline PMN transepithelial migration compared to vehicle controls): 54 ± 8% | inhibition at 0.001 µM (Homo sapiens, staurosporine 1 nM, read-out: inhibition of baseline PMN transepithelial migration compared to vehicle controls): 67 ± 11% | inhibition at 0.1 µM (Homo sapiens, staurosporine 100 nM, read-out: inhibition of baseline PMN transepithelial migration compared to vehicle controls): 94 ± 4% | inhibition of LXA4-elicited increment in migration compared to vehicle control (staurosporine with LXA4 10 nM): 89±7%
